In the assay the test system is P388 leukemia ip, CD2F1 mice, survival T/C. Put plainly: NCI In Vivo Anticancer Drug Screen. Data for tumor model P388 Leukemia (intraperitoneal) in CD2F1 (CDF1) mice. The note with it: T/C endpoint: median survival time, higher T/C = longer survival.
The mark [1] stands for this setting: dose: 6.25 mg/kg/injection, schedule: Q01DX005 (ip), vehicle: Klucel (hydroxypropylcellulose) (HPC).
The mark [2] stands for this setting: dose: 50.0 mg/kg/injection, schedule: Q01DX005 (ip), vehicle: Klucel (hydroxypropylcellulose) (HPC).
[3] abbreviates: dose: 200.0 mg/kg/injection, schedule: Q01DX005 (ip), vehicle: Klucel (hydroxypropylcellulose) (HPC).
Setting [4] is: dose: 50.0 mg/kg/injection, schedule: Q01DX005 (ip), vehicle: saline with Tween-80.
Where [5] appears, read: dose: 200.0 mg/kg/injection, schedule: Q01DX005 (ip), vehicle: saline with Tween-80.
[6] abbreviates: dose: 6.25 mg/kg/injection, schedule: Q01DX009 (ip), vehicle: saline.
[7] abbreviates: dose: 25.0 mg/kg/injection, schedule: Q01DX009 (ip), vehicle: saline.
[8] abbreviates: dose: 50.0 mg/kg/injection, schedule: Q01DX009 (ip), vehicle: saline.
Setting [9] is: dose: 100.0 mg/kg/injection, schedule: Q01DX009 (ip), vehicle: saline.
Setting [10] is: dose: 200.0 mg/kg/injection, schedule: Q01DX009 (ip), vehicle: saline.
The mark [11] stands for this setting: dose: 25.0 mg/kg/injection, schedule: Q01DX009 (ip), vehicle: Klucel (hydroxypropylcellulose) (HPC).
The mark [12] stands for this setting: dose: 50.0 mg/kg/injection, schedule: Q01DX009 (ip), vehicle: Klucel (hydroxypropylcellulose) (HPC).
Where [13] appears, read: dose: 100.0 mg/kg/injection, schedule: Q01DX009 (ip), vehicle: Klucel (hydroxypropylcellulose) (HPC).
Setting [14] is: dose: 200.0 mg/kg/injection, schedule: Q01DX009 (ip), vehicle: Klucel (hydroxypropylcellulose) (HPC).
The mark [15] stands for this setting: dose: 25.0 mg/kg/injection, schedule: Q01DX009 (ip), vehicle: saline with Tween-80.
Setting [16] is: dose: 12.5 mg/kg/injection, schedule: Q01DX009 (ip), vehicle: saline.
Where [17] appears, read: dose: 100.0 mg/kg/injection, schedule: Q04DX002 (ip), vehicle: saline with Tween-80.
Setting [18] is: dose: 12.5 mg/kg/injection, schedule: Q01DX009 (ip), vehicle: Klucel (hydroxypropylcellulose) (HPC).

The list is a part of this screen's results and no random one: it gathers tests that were run many times, whatever their T/C, doses with no T/C, and many T/C values between a quarter and a half above the control. Other doses and runs of a compound stand elsewhere. T/C gives the treated animals as a percentage of the vehicle group. Some entries give survivors of the animals treated and no T/C: the source holds a T/C of zero for them, seemingly a mark for toxic or unscored doses. Some survivor counts are full or nearly so, which does not show that the dose was tolerated: survival well below the control is almost never listed, so the zero probably covers shortened survival too. Survivors were counted at the toxicity check, usually on the fifth day, unless a day is given; later deaths do not show. Schedule codes are those of the source, taken here to give the interval after Q, in days (D) or hours (H), and the number of doses after X. Some entries hold several experiments; their values stand side by side, smallest first. For survival time, the PubChem record calls one and a half times the control and up active, and a quarter to a half above the control has no call in these data; cut-offs in other NCI protocols can differ. Marks such as (2×) say how often a value occurs here. Some T/C values are followed by the survivors on the day toxicity was checked, most often the fifth; without a count, all were alive then.

In the case of `[Cl][Sn]([CH2][Sn]([Cl])([c]1ccccc1)[c]1ccccc1)([c]1ccccc1)[c]1ccccc1`, the T/C runs as follows: (dose: 1.56 mg/kg/injection, schedule: Q01DX005 (ip), vehicle: Klucel (hydroxypropylcellulose) (HPC)) 133 % of control; under setting [1], 126 % of control. In addition, the survivor count (dose: 3.12 mg/kg/injection, schedule: Q01DX005 (ip), vehicle: Klucel (hydroxypropylcellulose) (HPC)) was 0 of 6 and 3 of 6; the survivor count under setting [1] is reported as 0 of 6; the survivor count (dose: 12.5 mg/kg/injection, schedule: Q01DX005 (ip), vehicle: Klucel (hydroxypropylcellulose) (HPC)) is reported as 0 of 6; the survivor count under setting [2] is reported as 2 of 6; the survivor count (dose: 100.0 mg/kg/injection, schedule: Q01DX005 (ip), vehicle: Klucel (hydroxypropylcellulose) (HPC)) is 0 of 6; the survivor count under setting [3] was 0 of 6.

For `Cc1nsc2[nH]c(=O)n(Nc3ccc(O)cc3)c(=O)c12`, the T/C by setting is: under setting [4], 149 % of control; under setting [5], 147 % of control. For the same molecule, where the note is “dose: 400.0 mg/kg/injection, schedule: Q01DX005 (ip), vehicle: saline with Tween-80”, the survivor count is recorded as 0 of 6.

Regarding `CSCCC([NH-])C(=O)O.CSCCC([NH-])C(=O)O.[Ni+2]` (centres undefined), the survivor count is, setting by setting: under setting [6], 6 of 6; under setting [7], 2 of 6; under setting [8], 5 of 6; under setting [9], 0 of 6; under setting [10], 0 of 6.

For the molecule `CSC(=S)S(=O)(=O)C12CC3CC(CC(C3)C1)C2`, the T/C was 131 % of control under setting [11] and 100, 117, 122, 144 % of control [5 of 6 alive] under setting [12]. Also, the survivor count is given as 0 of 6 under setting [13] and 0 of 6 under setting [14].

With `CCC[CH2][Sn]1([CH2]CCC)[O]C(=O)CSC(=S)SCC(=O)[O]1`, the survivor count runs as follows: (dose: 12.5 mg/kg/injection, schedule: Q01DX009 (ip), vehicle: saline with Tween-80) 0 of 6; under setting [15], 0 of 6; under setting [8], 2 of 6; under setting [9], 0 of 6; under setting [10], 0 of 6.

On to `CCN(CC)C(=O)S(=O)(=O)c1ccccc1`, for which the survivor count runs as follows: under setting [12], 0 of 6 and 2 of 4; under setting [13], 0 of 6.

Consider `C=CC(=NC(C)(C)C)N(CC)CC`, for which the survivor count was 0 of 6 (dose: 120.0 mg/kg/injection, schedule: Q01DX005 (ip), vehicle: saline with Tween-80) and 0 of 6 (dose: 240.0 mg/kg/injection, schedule: Q01DX005 (ip), vehicle: saline with Tween-80).

On to `CC(=NC(C)C)Nc1ccc(Cl)cc1C`, for which the survivor count (dose: 200.0 mg/kg/injection, schedule: Q01DX009 (ip), vehicle: saline + Tween-80 + alcohol) is on record as 3 of 6.

`CS(=O)(=O)c1nsc(N)n1`: the T/C was 96, 100, 101 % of control under setting [6]; 103 % of control (2×) under setting [16]; 88, 97, 104, 105 % of control under setting [7]; 93, 96, 97, 100 % of control under setting [8]. Further, the survivor count by setting is: under setting [6], 5 of 6; under setting [16], 5 of 6 and 6 of 6.

Regarding `CCC1(C)N=C(N)Nc2nc3cc(C)c(C)cc3n21` (centres undefined), the survivor count runs as follows: under setting [9], 6 of 6; under setting [10], 2 of 6.

On to `C/C(=C\C(=O)c1cccc(F)c1)N1CCN(c2cccc(C(F)(F)F)c2)CC1`, for which, under setting [3], the survivor count is on record as 4 of 6.

`Cn1c2ccccc2c(=O)c2c(O)cc3c(c21)C=CC(C)(C)O3`: the survivor count is 6 of 6 (dose: 0.38 mg/kg/injection, schedule: Q01DX009 (ip), vehicle: Klucel (hydroxypropylcellulose) (HPC)); 6 of 6 under setting [11]; 6 of 6 under setting [12]; 6 of 6 under setting [13].

For the molecule `NC(Cc1ccccc1Cl)c1nn[nH]n1` (centres undefined), the survivor count runs as follows: under setting [17], 4 of 6; (dose: 200.0 mg/kg/injection, schedule: Q04DX002 (ip), vehicle: saline with Tween-80) 3 of 6; (dose: 400.0 mg/kg/injection, schedule: Q04DX002 (ip), vehicle: saline with Tween-80) 0 of 5 and 0 of 6.

Regarding `CCC(C)C(N)C(=O)NC(CC(N)=O)C(=O)NC(CC(C)C)C(=O)NC(CCCCN)C(=O)NC(C)C(=O)NC(CC(C)C)C(=O)NC(C)C(=O)NC(C)C(=O)NC(CC(C)C)C(=O)NC(C)C(=O)NC(CCCCN)C(=O)NC(CCCCN)C(=O)NC(C(=O)NC(CC(C)C)C(N)=O)C(C)CC` (centres undefined), the survivor count (dose: 25.0 mg/kg/injection, schedule: Q01DX005 (ip), vehicle: Klucel (hydroxypropylcellulose) (HPC)) is 1 of 6 and the survivor count under setting [2] is listed as 0 of 6.

In the case of `C/C(=N\NC(=S)N1CCCCCC1)c1cccc(C)n1`, under setting [4], the T/C was 126 % of control. Besides, the survivor count was 3 of 6 and 3 of 5 (dose: 100.0 mg/kg/injection, schedule: Q01DX005 (ip), vehicle: saline with Tween-80); 0 of 6 under setting [5].

As to `Cc1ccc(Cl)c([N+](=O)[O-])c1N`, the survivor count (dose: 400.0 mg/kg/injection, schedule: Q04DX003 (ip), vehicle: saline with Tween-80) is listed as 0 of 6.

In the case of `O=C1C(C(=Nc2cccc(Cl)c2)c2ccccc2)=C(O)c2ccccc21`, the survivor count under setting [17] was 6 of 6.

As for `N#CC(Br)(Br)C#N`, the survivor count under setting [18] was 3 of 6; the survivor count under setting [11] was 0 of 6; the survivor count under setting [12] is listed as 0 of 6; the survivor count under setting [13] is reported as 0 of 6; the survivor count under setting [14] is given as 0 of 6; the survivor count (dose: 400.0 mg/kg/injection, schedule: Q01DX009 (ip), vehicle: Klucel (hydroxypropylcellulose) (HPC)) was 0 of 6.

`O=C(O)c1ccc(COc2ccc([N+](=O)[O-])cc2Cl)cc1`: the survivor count (dose: 400.0 mg/kg/injection, schedule: Q04DX003 (ip), vehicle: saline) is reported as 2 of 6.

As to `CCC(c1ccc(OC)cc1)C(NCC(=O)N/N=C/c1c[nH]c2ccccc12)c1ccc(OC)cc1` (centres undefined), under “dose: 400.0 mg/kg/injection, schedule: Q01DX001 (ip), vehicle: saline with Tween-80”, the survivor count is on record as 5 of 6.

Take `c1ccc(CN2COc3c(ccc4c3OCN(Cc3ccccc3)C4)C2)cc1`: under setting [18], the survivor count is listed as 5 of 6.

On to `C=C1C[C@@]2(OC)OCC[C@H]3C(C)=CCC(C1=O)[C@]32C(=O)OC` (some centres undefined), for which, under setting [5], the survivor count is given as 2 of 6.

For the molecule `COc1cc2c(cc1-c1coc3cc(O)ccc3c1=O)OCO2`, the survivor count (dose: 8.5 mg/kg/injection, schedule: Q01DX005 (ip), vehicle: Klucel (hydroxypropylcellulose) (HPC)) is recorded as 6 of 6; the survivor count (dose: 17.0 mg/kg/injection, schedule: Q01DX005 (ip), vehicle: Klucel (hydroxypropylcellulose) (HPC)) is given as 6 of 6; the survivor count (dose: 34.0 mg/kg/injection, schedule: Q01DX005 (ip), vehicle: Klucel (hydroxypropylcellulose) (HPC)) is 6 of 6.

Consider `CCC[CH2][Sn]([CH2]CCC)([CH2]CCN(C)C)[CH2]CCN(C)C`, for which the survivor count (dose: 200.0 mg/kg/injection, schedule: Q01DX009 (ip), vehicle: saline with Tween-80) is given as 0 of 6.

With `COc1cc(N=Nc2ccc([N+](=O)[O-])cc2)ccc1N(CCCl)CCCl`, the T/C by setting is: under setting [15], 140 % of control; (dose: 50.0 mg/kg/injection, schedule: Q01DX009 (ip), vehicle: saline with Tween-80) 145 % of control.
